# The other results are listed elsewhere or left out.
# Tests used:
# Assay in all cases: glycan array binding signal (z-score within array); higher = stronger binding
# Conditions in all cases: glycan notation: IUPAC condensed, linker removed
# [1] = molecular target: Gal(b1-3)GlcNAc(b1-2)Man(a1-3)[Gal(b1-3)GlcNAc(b1-2)Man(a1-6)]Man(b1-4)GlcNAc(b1-4)[Fuc(a1-6)]GlcNAc
# Summary of the method: (§1)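 From the Consortium for Functional Glycomics database, 3228 arrays were curated, keeping only those whose protein sequence was available. Binding is given as a within-array Z-score averaged across arrays sharing a protein sequence and across linkers. Negative Z-scores can be read as non-binding.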
# [2] = molecular target: Gal(b1-3)GlcNAc(b1-2)Man(a1-3)[GlcNAc(b1-4)][Gal(b1-3)GlcNAc(b1-2)Man(a1-6)]Man(b1-4)GlcNAc(b1-4)GlcNAc
# Summary of the method: as §1
# [3] = molecular target: Gal(b1-3)GlcNAc(b1-2)[Gal(b1-3)GlcNAc(b1-6)]Man(a1-6)[Gal(b1-3)GlcNAc(b1-2)Man(a1-3)]Man(b1-4)GlcNAc(b1-4)GlcNAc
# Summary of the method: as §1
# [4] = molecular target: Gal(b1-3)GlcNAc(b1-3)Gal(b1-3)GlcNAc
# Summary of the method: as §1
# [5] = molecular target: Gal(b1-3)GlcNAc(b1-3)Gal(b1-4)Glc
# Summary of the method: as §1
# [6] = molecular target: Gal(b1-3)GlcNAc(b1-3)Gal(b1-4)GlcNAc
# Summary of the method: as §1
# [7] = molecular target: Gal(b1-3)GlcNAc(b1-3)Gal(b1-4)GlcNAc(b1-2)Man(a1-3)[Gal(b1-3)GlcNAc(b1-3)Gal(b1-4)GlcNAc(b1-2)Man(a1-6)]Man(b1-4)GlcNAc(b1-4)GlcNAc
# Summary of the method: as §1
# [8] = molecular target: Gal(b1-3)GlcNAc(b1-3)Gal(b1-4)GlcNAc(b1-2)[Gal(b1-3)GlcNAc(b1-3)Gal(b1-4)GlcNAc(b1-6)]Man(a1-6)[Gal(b1-3)GlcNAc(b1-3)Gal(b1-4)GlcNAc(b1-2)Man(a1-3)]Man(b1-4)GlcNAc(b1-4)[Fuc(a1-6)]GlcNAc
# Summary of the method: as §1
# [9] = molecular target: Gal(b1-3)GlcNAc(b1-3)Gal(b1-4)GlcNAc(b1-3)Gal(b1-4)GlcNAc(b1-2)[Gal(b1-3)GlcNAc(b1-3)Gal(b1-4)GlcNAc(b1-3)Gal(b1-4)GlcNAc(b1-6)]Man(a1-6)[Gal(b1-3)GlcNAc(b1-3)Gal(b1-4)GlcNAc(b1-3)Gal(b1-4)GlcNAc(b1-2)Man(a1-3)]Man(b1-4)GlcNAc(b1-4)[Fuc(a1-6)]GlcNAc
# Summary of the method: as §1
# [10] = molecular target: Gal(b1-3)GlcNAc(b1-3)Gal(b1-4)GlcNAc(b1-6)[Gal(b1-3)GlcNAc(b1-3)]Gal(b1-4)Glc
# Summary of the method: as §1
# [11] = molecular target: Gal(b1-3)GlcNAc(b1-3)Gal(b1-4)[Fuc(a1-3)]GlcNAc
# Summary of the method: as §1
# [12] = molecular target: Gal(b1-3)GlcNAc(b1-3)Gal(b1-4)[Fuc(a1-3)]GlcNAc(b1-6)[Gal(b1-3)GlcNAc(b1-3)]Gal(b1-4)Glc
# Summary of the method: as §1
# [13] = molecular target: Gal(b1-3)GlcNAc(b1-3)GalNAc
# Summary of the method: as §1
# [14] = molecular target: Gal(b1-3)GlcNAc(b1-6)Gal(b1-4)GlcNAc
# Summary of the method: as §1
# [15] = molecular target: Gal(b1-3)GlcNAc(b1-6)GalNAc
# Summary of the method: as §1
# [16] = molecular target: Gal(b1-3)GlcNAc(b1-6)[Gal(b1-3)]GalNAc
# Summary of the method: as §1
# [17] = molecular target: Gal(b1-3)GlcNAc6S
# Summary of the method: as §1
# [18] = molecular target: Gal(b1-3)[Fuc(a1-4)]GlcNAc
# Summary of the method: as §1
# [19] = molecular target: Gal(b1-3)[Fuc(a1-4)]GlcNAc(b1-2)Man
# Summary of the method: as §1
# [20] = molecular target: Gal(b1-3)[Fuc(a1-4)]GlcNAc(b1-2)Man(a1-3)[Gal(b1-3)[Fuc(a1-4)]GlcNAc(b1-2)Man(a1-6)]Man(b1-4)GlcNAc(b1-4)[Fuc(a1-6)]GlcNAc
# Summary of the method: as §1
# [21] = molecular target: Gal(b1-3)[Fuc(a1-4)]GlcNAc(b1-3)Gal(b1-3)[Fuc(a1-4)]GlcNAc
# Summary of the method: as §1
# [22] = molecular target: Gal(b1-3)[Fuc(a1-4)]GlcNAc(b1-3)Gal(b1-4)[Fuc(a1-3)]GlcNAc
# Summary of the method: as §1
# [23] = molecular target: Gal(b1-3)[Fuc(a1-4)]GlcNAc(b1-6)GalNAc
# Summary of the method: as §1
# [24] = molecular target: Gal(b1-3)[GlcNAc(b1-6)]GalNAc
# Summary of the method: as §1
# [25] = molecular target: Gal(b1-3)[Neu5Ac(a2-6)]GalNAc
# Summary of the method: as §1
# [26] = molecular target: Gal(b1-3)[Neu5Ac(a2-6)]GlcNAc(b1-4)Gal(b1-4)Glc
# Summary of the method: as §1
# [27] = molecular target: Gal(b1-3)[Neu5Ac(b2-6)]GalNAc
# Summary of the method: as §1
# [28] = molecular target: Gal(b1-4)Gal
# Summary of the method: as §1
# [29] = molecular target: Gal(b1-4)GalNAc(a1-3)[Fuc(a1-2)]Gal(b1-4)GlcNAc
# Summary of the method: as §1
# [30] = molecular target: Gal(b1-4)GalNAc(b1-3)[Fuc(a1-2)]Gal(b1-4)GlcNAc
# Summary of the method: as §1
binder,measurement,setting,value
PX14343F-bfa-562-20-562 (Bacteroides fragilis) (protein) CDDFLDSFPQDTVTNENFWKSKEDADKVLVDIYASLLPKDAIFFDEAMSDNAYLVWDWWGGAQQVANGSYTTSGEIPTNRWNGSYEVIRKCWFLLEGIEKIEDISEQDKNKIIGETYFMLAYNYYVLTSYFGDVPLVTKTLAIPESKQLVRTPKAEVVDYAINKLKEAAVMLEGLSQEKGRVTADACRFLIARMYLYNGDYSNVLETVKLLEGKYQLYREGDTPYEDLFSGVAENSCEVILSVVCDKRVGEIYTSHGGNGIMLLKGITGEDPYRGVTPSGSLVDAYPMADGRLIHEAGSSYDPKKPYEGRDPRFYQSIVYPTGQIKYLDVETGTVKERLYDPEDPTTVPEHQYNYSQPSATGYMWNKYIDYSVYAMNSVWDCTNDIIVFRYADVLLMKAEALLQTKGESAKEEVCNLIDQLRDRCSCGRVHRENYNSKDELMELLKNERRIELANEGLRYMDLIRWKDAEKNTIVTGVGLTGQMYGAYMRKDGVGKDDKTVDVDNTPRRYIETRYFNASKGYLFPIPQKERDLNPNLTQNPNW,glycan array binding signal (z-score),[1],0.346
same,glycan array binding signal (z-score),[2],0.56
same,glycan array binding signal (z-score),[3],-0.409
same,glycan array binding signal (z-score),[4],0.064
same,glycan array binding signal (z-score),[5],-0.151
same,glycan array binding signal (z-score),[6],0.027
same,glycan array binding signal (z-score),[7],-0.187
same,glycan array binding signal (z-score),[8],1.83
same,glycan array binding signal (z-score),[9],1.38
same,glycan array binding signal (z-score),[10],-0.681
same,glycan array binding signal (z-score),[11],-0.916
same,glycan array binding signal (z-score),[12],-0.809
same,glycan array binding signal (z-score),[13],-0.73
same,glycan array binding signal (z-score),[14],-0.369
same,glycan array binding signal (z-score),[15],-0.588
same,glycan array binding signal (z-score),[16],0.216
same,glycan array binding signal (z-score),[17],-0.201
same,glycan array binding signal (z-score),[18],-0.027
same,glycan array binding signal (z-score),[19],0.213
same,glycan array binding signal (z-score),[20],-0.279
same,glycan array binding signal (z-score),[21],-0.334
same,glycan array binding signal (z-score),[22],-0.432
same,glycan array binding signal (z-score),[23],-0.408
same,glycan array binding signal (z-score),[24],-0.267
same,glycan array binding signal (z-score),[25],-0.479
same,glycan array binding signal (z-score),[26],-0.546
same,glycan array binding signal (z-score),[27],-0.885
same,glycan array binding signal (z-score),[28],-0.051
same,glycan array binding signal (z-score),[29],-0.735
same,glycan array binding signal (z-score),[30],-1.05

# Source: the supplement of paper PMC8728848
